Experimental findings from paper doi:10.1101/2020.06.17.158212 are described below.

Results are given in words; binding and its absence hold for the method and conditions named. A result given as binding can be weak or reduced; the word gives no strength. Sequences can lack the tags named with a protein. For some assays here: In cells and extracts the contact can be indirect.

The target in test [1] is T1, YFP-MPK3 (Arabidopsis thaliana) (UniProt Q39023).
T1 sequence: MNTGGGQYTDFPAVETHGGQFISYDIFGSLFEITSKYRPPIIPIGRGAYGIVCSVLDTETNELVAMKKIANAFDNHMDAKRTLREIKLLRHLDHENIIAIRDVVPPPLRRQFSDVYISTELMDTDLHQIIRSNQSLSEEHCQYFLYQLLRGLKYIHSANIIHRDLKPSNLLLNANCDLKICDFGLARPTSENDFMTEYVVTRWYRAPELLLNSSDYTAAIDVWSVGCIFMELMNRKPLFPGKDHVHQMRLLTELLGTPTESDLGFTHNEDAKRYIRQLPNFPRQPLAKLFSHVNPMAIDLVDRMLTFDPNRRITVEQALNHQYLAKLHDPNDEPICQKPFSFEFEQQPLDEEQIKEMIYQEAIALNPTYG
As to the kind of experiment: co-IP.

Test [2] addresses T2, WRKY20 (BiFC fusion used with MPK3 or MPK6) (Arabidopsis thaliana) (UniProt Q93WV0).
T2 sequence: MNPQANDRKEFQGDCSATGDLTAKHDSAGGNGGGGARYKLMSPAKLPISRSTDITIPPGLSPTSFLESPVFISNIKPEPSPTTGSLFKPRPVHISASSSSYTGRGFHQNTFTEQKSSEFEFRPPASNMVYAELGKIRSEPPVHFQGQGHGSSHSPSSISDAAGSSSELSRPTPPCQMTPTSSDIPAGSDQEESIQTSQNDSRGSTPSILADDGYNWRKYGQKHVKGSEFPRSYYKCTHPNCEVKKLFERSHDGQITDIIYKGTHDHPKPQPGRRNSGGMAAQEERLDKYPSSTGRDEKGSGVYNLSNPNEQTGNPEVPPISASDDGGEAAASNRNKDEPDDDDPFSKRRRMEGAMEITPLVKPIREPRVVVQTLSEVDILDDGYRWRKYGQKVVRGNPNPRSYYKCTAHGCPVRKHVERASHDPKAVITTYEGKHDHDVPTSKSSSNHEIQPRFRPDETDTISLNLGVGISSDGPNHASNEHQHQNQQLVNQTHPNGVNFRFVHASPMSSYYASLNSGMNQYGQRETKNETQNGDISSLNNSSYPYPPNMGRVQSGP
The test can be described thus: split reporter.

The target in test [3] is BD-βC1 (tomato yellow leaf curl China betasatellite (TYLCCNB)). As to the kind of experiment: two-hybrid.
In test [4] the target is βC1^S33D fused with the C-terminal part of EYFP (tomato yellow leaf curl China betasatellite (TYLCCNB)). As to the kind of experiment: split reporter.
Test [5] has as its target βC1 fused with the C-terminal part of EYFP (tomato yellow leaf curl China betasatellite (TYLCCNB)). The test can be described thus: split reporter.
Test [6] deals with His-βC1 fusion protein (tomato yellow leaf curl China betasatellite (TYLCCNB)). As to the kind of experiment: pull-down.

With βC1-myc, the binding entry in test [1] is listed as “binds”.

Consider “βC1 (coexpressed in the modified BiFC assay)”, for which the binding result in test [2] is given as “binds”.

B1: AD-MPK3 (enzyme, UniProt Q39023 1-370)
chain: MNTGGGQYTDFPAVETHGGQFISYDIFGSLFEITSKYRPPIIPIGRGAYGIVCSVLDTETNELVAMKKIANAFDNHMDAKRTLREIKLLRHLDHENIIAIRDVVPPPLRRQFSDVYISTELMDTDLHQIIRSNQSLSEEHCQYFLYQLLRGLKYIHSANIIHRDLKPSNLLLNANCDLKICDFGLARPTSENDFMTEYVVTRWYRAPELLLNSSDYTAAIDVWSVGCIFMELMNRKPLFPGKDHVHQMRLLTELLGTPTESDLGFTHNEDAKRYIRQLPNFPRQPLAKLFSHVNPMAIDLVDRMLTFDPNRRITVEQALNHQYLAKLHDPNDEPICQKPFSFEFEQQPLDEEQIKEMIYQEAIALNPTYG
Regarding B1, in test [3], the binding entry was “binds”.

B2: MPK3 fused with the N-terminal part of EYFP (enzyme, UniProt Q39023 1-370)
chain: MNTGGGQYTDFPAVETHGGQFISYDIFGSLFEITSKYRPPIIPIGRGAYGIVCSVLDTETNELVAMKKIANAFDNHMDAKRTLREIKLLRHLDHENIIAIRDVVPPPLRRQFSDVYISTELMDTDLHQIIRSNQSLSEEHCQYFLYQLLRGLKYIHSANIIHRDLKPSNLLLNANCDLKICDFGLARPTSENDFMTEYVVTRWYRAPELLLNSSDYTAAIDVWSVGCIFMELMNRKPLFPGKDHVHQMRLLTELLGTPTESDLGFTHNEDAKRYIRQLPNFPRQPLAKLFSHVNPMAIDLVDRMLTFDPNRRITVEQALNHQYLAKLHDPNDEPICQKPFSFEFEQQPLDEEQIKEMIYQEAIALNPTYG
On to B2, for which the binding result in test [4] and in test [5] was “binds” in each case.

B3: GST-MPK3 fusion protein (enzyme, UniProt Q39023 1-370)
chain: MNTGGGQYTDFPAVETHGGQFISYDIFGSLFEITSKYRPPIIPIGRGAYGIVCSVLDTETNELVAMKKIANAFDNHMDAKRTLREIKLLRHLDHENIIAIRDVVPPPLRRQFSDVYISTELMDTDLHQIIRSNQSLSEEHCQYFLYQLLRGLKYIHSANIIHRDLKPSNLLLNANCDLKICDFGLARPTSENDFMTEYVVTRWYRAPELLLNSSDYTAAIDVWSVGCIFMELMNRKPLFPGKDHVHQMRLLTELLGTPTESDLGFTHNEDAKRYIRQLPNFPRQPLAKLFSHVNPMAIDLVDRMLTFDPNRRITVEQALNHQYLAKLHDPNDEPICQKPFSFEFEQQPLDEEQIKEMIYQEAIALNPTYG
On to B3, for which, in test [6], the binding entry is listed as “binds”.

B4: WRKY20 fused with the N-terminal part of EYFP (protein, UniProt Q93WV0 1-557)
chain: MNPQANDRKEFQGDCSATGDLTAKHDSAGGNGGGGARYKLMSPAKLPISRSTDITIPPGLSPTSFLESPVFISNIKPEPSPTTGSLFKPRPVHISASSSSYTGRGFHQNTFTEQKSSEFEFRPPASNMVYAELGKIRSEPPVHFQGQGHGSSHSPSSISDAAGSSSELSRPTPPCQMTPTSSDIPAGSDQEESIQTSQNDSRGSTPSILADDGYNWRKYGQKHVKGSEFPRSYYKCTHPNCEVKKLFERSHDGQITDIIYKGTHDHPKPQPGRRNSGGMAAQEERLDKYPSSTGRDEKGSGVYNLSNPNEQTGNPEVPPISASDDGGEAAASNRNKDEPDDDDPFSKRRRMEGAMEITPLVKPIREPRVVVQTLSEVDILDDGYRWRKYGQKVVRGNPNPRSYYKCTAHGCPVRKHVERASHDPKAVITTYEGKHDHDVPTSKSSSNHEIQPRFRPDETDTISLNLGVGISSDGPNHASNEHQHQNQQLVNQTHPNGVNFRFVHASPMSSYYASLNSGMNQYGQRETKNETQNGDISSLNNSSYPYPPNMGRVQSGP
Turning to B4, the binding entry in test [4] and in test [5] was “binds” each time.
